Test results reported in doi:10.1101/2024.10.23.619792.
These are yes or no findings as the source states them, for the method shown. Binding seen in cells or lysates may run through a third protein. A result given as binding can be weak or reduced; the word gives no strength.

Amino acid sequences for entries named in this document (tags omitted). A change or cut given only in a name is not applied to a line headed by its entry.
UniProt Q7TT79: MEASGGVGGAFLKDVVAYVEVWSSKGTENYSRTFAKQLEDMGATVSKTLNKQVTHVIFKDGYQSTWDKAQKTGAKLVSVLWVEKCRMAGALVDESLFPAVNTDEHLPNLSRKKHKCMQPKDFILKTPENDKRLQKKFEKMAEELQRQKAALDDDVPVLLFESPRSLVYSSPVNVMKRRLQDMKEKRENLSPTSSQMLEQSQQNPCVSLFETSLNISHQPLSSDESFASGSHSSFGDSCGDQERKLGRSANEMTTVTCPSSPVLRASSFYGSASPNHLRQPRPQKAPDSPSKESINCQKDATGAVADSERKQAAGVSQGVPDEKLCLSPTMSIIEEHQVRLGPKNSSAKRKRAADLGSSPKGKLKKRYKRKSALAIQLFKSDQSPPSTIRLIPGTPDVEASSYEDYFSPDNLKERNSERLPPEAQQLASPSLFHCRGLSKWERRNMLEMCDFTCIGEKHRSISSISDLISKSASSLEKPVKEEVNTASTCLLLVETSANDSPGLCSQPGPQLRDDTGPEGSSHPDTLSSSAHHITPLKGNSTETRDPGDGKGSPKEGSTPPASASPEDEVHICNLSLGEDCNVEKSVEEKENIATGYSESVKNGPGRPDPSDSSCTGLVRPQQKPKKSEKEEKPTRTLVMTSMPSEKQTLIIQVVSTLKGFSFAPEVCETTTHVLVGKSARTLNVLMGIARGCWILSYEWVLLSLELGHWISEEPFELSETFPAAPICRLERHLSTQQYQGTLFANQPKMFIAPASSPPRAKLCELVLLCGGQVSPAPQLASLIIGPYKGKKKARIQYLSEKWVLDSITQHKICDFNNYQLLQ

Target: MCPH1-BRCT-eCR (tandem BRCT domain of MCPH1 fused to eGFP) (mouse) (UniProt Q7TT79)
Assay: pull-down

binding: binds
Substance: yH2AX (histone H2A variant X phosphorylated at Serine 139) (from UniProt P27661 1-143)
